Laboratory results reported in article PMC3589465.
Results are given in words; binding and its absence hold for the method and conditions named. In cells and extracts the contact can be indirect. Some entries that bind do so weakly or less than the wild type.

Amino acid sequences for entries named in this document (tags omitted). Residues count along the entry.
UniProt Q60751, residues 742-1373: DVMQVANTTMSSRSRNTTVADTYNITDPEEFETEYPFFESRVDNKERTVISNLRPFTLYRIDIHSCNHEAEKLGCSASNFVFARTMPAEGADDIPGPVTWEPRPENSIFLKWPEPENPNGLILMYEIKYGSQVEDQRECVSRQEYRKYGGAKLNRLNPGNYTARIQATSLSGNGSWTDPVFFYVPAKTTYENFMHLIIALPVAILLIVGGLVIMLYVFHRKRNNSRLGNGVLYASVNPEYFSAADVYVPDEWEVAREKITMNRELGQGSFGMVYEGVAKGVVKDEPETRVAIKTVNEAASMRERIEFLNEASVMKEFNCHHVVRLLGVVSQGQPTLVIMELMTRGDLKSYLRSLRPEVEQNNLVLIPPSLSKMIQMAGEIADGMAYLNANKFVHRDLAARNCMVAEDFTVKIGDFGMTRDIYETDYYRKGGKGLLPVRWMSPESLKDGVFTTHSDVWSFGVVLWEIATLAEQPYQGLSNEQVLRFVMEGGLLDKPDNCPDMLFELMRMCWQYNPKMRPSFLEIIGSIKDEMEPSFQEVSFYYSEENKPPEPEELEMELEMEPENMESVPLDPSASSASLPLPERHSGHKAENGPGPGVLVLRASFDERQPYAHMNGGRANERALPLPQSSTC

Molecular target: IGF-1 receptor β subunit (mouse (endogenous in 3T3-L1)) (UniProt Q60751)
Assay: co-IP; 500 µg of 3T3-L1 lysate (RIPA buffer with 1% NP-40, 150 mM NaCl) precipitated with 5 µg anti-IGF-1Rβ antibody on a Catch and Release v2.0 spin column, 12 h at 4°C; serum-depleted cells with or without 100 µg/ml AGEs for 15 min; Western blots of the eluate

Row | binding | Binder
1 | binds | Caveolin-1 (protein, UniProt P49817 1-178) MSGGKYVDSEGHLYTVPIREQGNIYKPNNKAMADEVTEKQVYDAHTKEIDLVNRDPKHLNDDVVKIDFEDVIAEPEGTHSFDGIWKASFTTFTVTKYWFYRLLSTIFGIPMALIWGIYFAILSFLHIWAVVPCIKSFLIEIQCISRVYSIYVHTFCDPLFEAIGKIFSNIRISTQKEI
2 | binds | phospho-Cav-1 (Cav-1 tyr14) (protein, UniProt P49817 1-178, phosphotyrosine at 14) MSGGKYVDSEGHLYTVPIREQGNIYKPNNKAMADEVTEKQVYDAHTKEIDLVNRDPKHLNDDVVKIDFEDVIAEPEGTHSFDGIWKASFTTFTVTKYWFYRLLSTIFGIPMALIWGIYFAILSFLHIWAVVPCIKSFLIEIQCISRVYSIYVHTFCDPLFEAIGKIFSNIRISTQKEI
